Assay: general procedure: peptide synthesis; HATU/NMM
Conditions: late stage modification step, trifluoroacetate

Substance	step yield
N^2.1-(tert-Butoxycarbonyl)-D-leucyl-L-leucyl-[(3R)-3-hydroxy-L-phenylalanyl]-[(3R)-3-hydroxy-L-leucyl]-L-leucyl-D-arginyl-L-isoleucyl-L-allothreonylglycyl-[(3S)-3-hydroxy-L-aspartyl]-L-serine C^1.11—O^3.3-lactone Trifluoroacetate	75% of theory
N^2.1-(tert-Butoxycarbonyl)-N^4.10-(2-{[benzyloxycarbonyl]amino}ethyl)-D-leucyl-L-leucyl-[(3R)-3-hydroxy-L-phenylalanyl]-[(3R)-3-hydroxy-L-leucyl]-L-leucyl-D-arginyl-L-iso-leucyl-L-allothreonylglycyl-[(3S)-3-hydroxy-L-asparaginyl]-L-serine C^1.11-O^3.3-lactone Trifluoroacetate	90% of theory
N^2.1-(tert-Butoxycarbonyl)-N^4.10-[2-(2-{[bis(dimethylamino)methylene]amino}ethoxy)ethyl]-D-leucyl-L-leucyl-[(3R)-3-hydroxy-L-phenylalanyl]-[(3R)-3-hydroxy-L-leucyl]-L-leucyl-D-arginyl-L-isoleucyl-L-allothreonylglycyl-[(3S)-3-hydroxy-L-asparaginyl]-L-serine C^1.11—O^3.3-lactone Bistrifluoroacetate	22% of theory
N^2.1-(tert-Butoxycarbonyl)-N^4.10-[2-(benzyloxy)-2-oxoethyl]-D-leucyl-L-leucyl-[(3R)-3-hydroxy-L-phenylalanyl]-[(3R)-3-hydroxy-L-leucyl]-L-leucyl-D-arginyl-L-isoleucyl-L-allothreonylglycyl-[(3S)-3-hydroxy-L-β-asparaginyl]-L-serine C^1.11—O^3.3-lactone Trifluoroacetate	98% of theory
N^4.10,N^4.10-Dimethyl-D-leucyl-L-leucyl-[(3R)-3-hydroxy-L-phenylalanyl]-[(3R)-3-hydroxy-L-leucyl]-L-leucyl-D-arginyl-L-isoleucyl-L-allothreonylglycyl-[(3S)-3-hydroxy-L-asparaginyl]-L-serine C^1.11—O^3.3-lactone Bistrifluoroacetate	51% of theory
N^4.10-(2-(Benzyloxy)-2-oxoethyl)-D-leucyl-L-leucyl-[(3R)-3-hydroxy-L-phenylalanyl]-[(3R)-3-hydroxy-L-leucyl]-L-leucyl-D-arginyl-L-isoleucyl-L-allothreonylglycyl-[(3S)-3-hydroxy-L-β-asparaginyl]-L-serine C^1.11—O^3.3-lactone Bistrifluoroacetate	84% of theory
N^4.10-(2-Amino-2-oxoethyl)-D-leucyl-L-leucyl-[(3R)-3-hydroxy-L-phenylalanyl]-[(3R)-3-hydroxy-L-leucyl]-L-leucyl-D-arginyl-L-isoleucyl-L-allothreonylglycyl-[(3S)-3-hydroxy-L-asparaginyl]-L-serine C^1.11—O^3.3-lactone Bistrifluoroacetate	65% of theory
N^4.10-(2-Amino-2-oxoethyl)-N^2.1-(tert-butoxycarbonyl)-D-leucyl-L-leucyl-[(3R)-3-hydroxy-L-phenylalanyl]-[(3R)-3-hydroxy-L-leucyl]-L-leucyl-D-arginyl-L-isoleucyl-L-allothreonylglycyl-[(3S)-3-hydroxy-L-asparaginyl]-L-serine C^1.11—O^3.3-lactone Trifluoroacetate	60% of theory
N^4.10-(2-Aminoethyl)-D-leucyl-L-leucyl-[(3R)-3-hydroxy-L-phenylalanyl]-[(3R)-3-hydroxy-L-leucyl]-L-leucyl-D-arginyl-L-isoleucyl-L-allothreonylglycyl-[(3S)-3-hydroxy-L-asparaginyl]-L-serine C^1.11—O^3.3-lactone Tristrifluoroacetate	67% of theory
N^4.10-(2-Aminoethyl)-N^2.1-(tert-butoxycarbonyl)-D-leucyl-L-leucyl-[(3R)-3-hydroxy-L-phenylalanyl]-[(3R)-3-hydroxy-L-leucyl]-L-leucyl-D-arginyl-L-isoleucyl-L-allothreonyl-glycyl-[(3S)-3-hydroxy-L-asparaginyl]-L-serine C^1.11—O^3.3-lactone Bistrifluoroacetate	78.9% of theory
N^4.10-(2-Hydroxyethyl)-D-leucyl-L-leucyl-[(3R)-3-hydroxy-L-phenylalanyl]-[(3R)-3-hydroxy-L-leucyl]-L-leucyl-D-arginyl-L-isoleucyl-L-allothreonylglycyl-[(3S)-3-hydroxy-L-asparaginyl]-L-serine C^1.11—O^3.3-lactone Bistrifluoroacetate	66% of theory
N^4.10-(3-Morpholin-4-yl-propyl)-D-leucyl-L-leucyl-[(3R)-3-hydroxy-L-phenylalanyl]-[(3R)-3-hydroxy-L-leucyl]-L-leucyl-D-arginyl-L-isoleucyl-L-allothreonylglycyl-[(3S)-3-hydroxy-L-asparaginyl]-L-serine C^1.11—O^3.3-lactone Tristrifluoroacetate	85% of theory
N^4.10-(3-Morpholin-4-ylpropyl)-D-leucyl-L-leucyl-[(3R)-3-hydroxy-L-phenylalanyl]-[(3R)-3-hydroxy-L-leucyl]-L-leucyl-D-arginyl-L-isoleucyl-L-allothreonylglycyl-[(3S)-3-hydroxy-L-asparaginyl]-L-serine C^1.11—O^3.3-lactone Tristrifluoroacetate	81% of theory
N^4.10-(Carboxymethyl)-D-leucyl-L-leucyl-[(3R)-3-hydroxy-L-phenylalanyl]-[(3R)-3-hydroxy-L-leucyl]-L-leucyl-D-arginyl-L-isoleucyl-L-allothreonylglycyl-[(3S)-3-hydroxy-L-fi-asparaginyl]-L-serine C^1.11—O^3.3-lactone Bistrifluoroacetate	45% of theory
N^4.10-(Pyridin-3-yl-methyl)-D-leucyl-L-leucyl-[(3R)-3-hydroxy-L-phenylalanyl]-[(3R)-3-hydroxy-L-leucyl]-L-leucyl-D-arginyl-L-isoleucyl-L-allothreonylglycyl-[(3S)-3-hydroxy-L-asparaginyl]-L-serine C^1.11—O^3.3-lactone Tristrifluoroacetate	89% of theory
N^4.10-Benzyl-D-leucyl-L-leucyl-[(3R)-3-hydroxy-L-phenylalanyl]-[(3R)-3-hydroxy-L-leucyl]-L-leucyl-D-arginyl-L-isoleucyl-L-allothreonylglycyl-[(3S)-3-hydroxy-L-asparaginyl]-L-serine C^1.11—O^3.3-lactone Bistrifluoroacetate	80% of theory
N^4.10-Methyl-D-leucyl-L-leucyl-[(3R)-3-hydroxy-L-phenylalanyl]-[(3R)-3-hydroxy-L-leucyl]-L-leucyl-D-arginyl-L-isoleucyl-L-allothreonylglycyl-[(3S)-3-hydroxy-L-asparaginyl]-L-serine C^1.11—O^3.3-lactone Bistrifluoroacetate	69% of theory
N^4.10-[2-(2-{[Bis(dimethylamino)methylene]amino}ethoxy)ethyl]-D-leucyl-L-leucyl-[(3R)-3-hydroxy-L-phenylalanyl]-[(3R)-3-hydroxy-L-leucyl]-L-leucyl-D-arginyl-L-isoleucyl-L-allothreonylglycyl-[(3S)-3-hydroxy-L-asparaginyl]-L-serine C^1.11—O^3.3-lactone Tristrifluoroacetate	67% of theory

From patent US20090105119A1 (priority 2006, published 2009)
